According to doi:10.1101/2021.07.21.452842:
These are yes or no findings as the source states them, for the method shown. Binding seen in cells or lysates may run through a third protein. Some binding calls cover weakened binding; strength is not graded here.

Chains of the proteins cited; added tags and fusions are not shown. Lines headed by an entry give the natural chain unless they say otherwise; changes in a name come on top. A line that says so, or that is headed by a name, gives the form on record, which may keep a tag or linker.
UniProt P38398: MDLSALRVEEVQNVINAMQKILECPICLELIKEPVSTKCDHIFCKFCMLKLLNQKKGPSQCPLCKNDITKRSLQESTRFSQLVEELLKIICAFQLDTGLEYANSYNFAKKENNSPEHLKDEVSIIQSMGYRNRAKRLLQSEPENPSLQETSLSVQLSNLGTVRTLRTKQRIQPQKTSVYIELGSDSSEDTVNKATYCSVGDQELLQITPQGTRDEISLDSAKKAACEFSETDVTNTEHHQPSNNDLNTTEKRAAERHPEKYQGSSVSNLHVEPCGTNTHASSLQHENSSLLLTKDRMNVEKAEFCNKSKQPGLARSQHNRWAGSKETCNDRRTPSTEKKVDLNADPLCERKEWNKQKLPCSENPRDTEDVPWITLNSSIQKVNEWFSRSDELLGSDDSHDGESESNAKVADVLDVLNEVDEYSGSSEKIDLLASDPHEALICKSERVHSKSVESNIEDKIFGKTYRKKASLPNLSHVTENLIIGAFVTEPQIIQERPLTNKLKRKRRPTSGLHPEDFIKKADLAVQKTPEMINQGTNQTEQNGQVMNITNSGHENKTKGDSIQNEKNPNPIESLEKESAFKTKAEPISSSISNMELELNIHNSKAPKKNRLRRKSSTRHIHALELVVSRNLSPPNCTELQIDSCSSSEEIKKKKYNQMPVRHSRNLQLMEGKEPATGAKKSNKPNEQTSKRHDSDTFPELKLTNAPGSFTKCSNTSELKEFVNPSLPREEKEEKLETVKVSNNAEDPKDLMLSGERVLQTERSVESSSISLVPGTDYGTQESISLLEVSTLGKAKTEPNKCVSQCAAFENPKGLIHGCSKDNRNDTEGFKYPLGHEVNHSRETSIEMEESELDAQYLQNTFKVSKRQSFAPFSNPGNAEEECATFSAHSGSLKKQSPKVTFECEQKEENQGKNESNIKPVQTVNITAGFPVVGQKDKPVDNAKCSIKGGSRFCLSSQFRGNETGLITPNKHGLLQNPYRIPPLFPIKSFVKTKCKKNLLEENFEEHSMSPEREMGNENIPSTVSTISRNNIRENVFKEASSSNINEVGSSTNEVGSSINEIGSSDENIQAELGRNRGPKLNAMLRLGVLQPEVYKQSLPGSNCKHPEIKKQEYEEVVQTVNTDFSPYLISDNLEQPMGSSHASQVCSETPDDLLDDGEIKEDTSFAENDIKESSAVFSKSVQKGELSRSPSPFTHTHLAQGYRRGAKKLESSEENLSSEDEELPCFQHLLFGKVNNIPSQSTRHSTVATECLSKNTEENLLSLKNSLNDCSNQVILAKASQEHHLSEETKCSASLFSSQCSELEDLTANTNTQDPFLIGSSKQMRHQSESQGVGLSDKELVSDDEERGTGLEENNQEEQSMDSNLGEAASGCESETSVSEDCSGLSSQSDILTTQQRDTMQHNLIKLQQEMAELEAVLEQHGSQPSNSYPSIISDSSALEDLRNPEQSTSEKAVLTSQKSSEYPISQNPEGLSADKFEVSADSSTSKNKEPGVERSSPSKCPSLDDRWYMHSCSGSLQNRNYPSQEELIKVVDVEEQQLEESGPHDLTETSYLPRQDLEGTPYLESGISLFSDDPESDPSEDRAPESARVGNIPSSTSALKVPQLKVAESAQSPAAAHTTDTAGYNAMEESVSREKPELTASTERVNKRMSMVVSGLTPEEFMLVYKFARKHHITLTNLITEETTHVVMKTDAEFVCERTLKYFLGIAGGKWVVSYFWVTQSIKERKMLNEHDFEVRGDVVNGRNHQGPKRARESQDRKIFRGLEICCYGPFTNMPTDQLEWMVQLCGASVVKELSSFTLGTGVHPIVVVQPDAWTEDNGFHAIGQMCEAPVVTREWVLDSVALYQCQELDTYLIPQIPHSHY
endogenous full-length GIV (human cell lysates) (Q3V6T2-3, form named): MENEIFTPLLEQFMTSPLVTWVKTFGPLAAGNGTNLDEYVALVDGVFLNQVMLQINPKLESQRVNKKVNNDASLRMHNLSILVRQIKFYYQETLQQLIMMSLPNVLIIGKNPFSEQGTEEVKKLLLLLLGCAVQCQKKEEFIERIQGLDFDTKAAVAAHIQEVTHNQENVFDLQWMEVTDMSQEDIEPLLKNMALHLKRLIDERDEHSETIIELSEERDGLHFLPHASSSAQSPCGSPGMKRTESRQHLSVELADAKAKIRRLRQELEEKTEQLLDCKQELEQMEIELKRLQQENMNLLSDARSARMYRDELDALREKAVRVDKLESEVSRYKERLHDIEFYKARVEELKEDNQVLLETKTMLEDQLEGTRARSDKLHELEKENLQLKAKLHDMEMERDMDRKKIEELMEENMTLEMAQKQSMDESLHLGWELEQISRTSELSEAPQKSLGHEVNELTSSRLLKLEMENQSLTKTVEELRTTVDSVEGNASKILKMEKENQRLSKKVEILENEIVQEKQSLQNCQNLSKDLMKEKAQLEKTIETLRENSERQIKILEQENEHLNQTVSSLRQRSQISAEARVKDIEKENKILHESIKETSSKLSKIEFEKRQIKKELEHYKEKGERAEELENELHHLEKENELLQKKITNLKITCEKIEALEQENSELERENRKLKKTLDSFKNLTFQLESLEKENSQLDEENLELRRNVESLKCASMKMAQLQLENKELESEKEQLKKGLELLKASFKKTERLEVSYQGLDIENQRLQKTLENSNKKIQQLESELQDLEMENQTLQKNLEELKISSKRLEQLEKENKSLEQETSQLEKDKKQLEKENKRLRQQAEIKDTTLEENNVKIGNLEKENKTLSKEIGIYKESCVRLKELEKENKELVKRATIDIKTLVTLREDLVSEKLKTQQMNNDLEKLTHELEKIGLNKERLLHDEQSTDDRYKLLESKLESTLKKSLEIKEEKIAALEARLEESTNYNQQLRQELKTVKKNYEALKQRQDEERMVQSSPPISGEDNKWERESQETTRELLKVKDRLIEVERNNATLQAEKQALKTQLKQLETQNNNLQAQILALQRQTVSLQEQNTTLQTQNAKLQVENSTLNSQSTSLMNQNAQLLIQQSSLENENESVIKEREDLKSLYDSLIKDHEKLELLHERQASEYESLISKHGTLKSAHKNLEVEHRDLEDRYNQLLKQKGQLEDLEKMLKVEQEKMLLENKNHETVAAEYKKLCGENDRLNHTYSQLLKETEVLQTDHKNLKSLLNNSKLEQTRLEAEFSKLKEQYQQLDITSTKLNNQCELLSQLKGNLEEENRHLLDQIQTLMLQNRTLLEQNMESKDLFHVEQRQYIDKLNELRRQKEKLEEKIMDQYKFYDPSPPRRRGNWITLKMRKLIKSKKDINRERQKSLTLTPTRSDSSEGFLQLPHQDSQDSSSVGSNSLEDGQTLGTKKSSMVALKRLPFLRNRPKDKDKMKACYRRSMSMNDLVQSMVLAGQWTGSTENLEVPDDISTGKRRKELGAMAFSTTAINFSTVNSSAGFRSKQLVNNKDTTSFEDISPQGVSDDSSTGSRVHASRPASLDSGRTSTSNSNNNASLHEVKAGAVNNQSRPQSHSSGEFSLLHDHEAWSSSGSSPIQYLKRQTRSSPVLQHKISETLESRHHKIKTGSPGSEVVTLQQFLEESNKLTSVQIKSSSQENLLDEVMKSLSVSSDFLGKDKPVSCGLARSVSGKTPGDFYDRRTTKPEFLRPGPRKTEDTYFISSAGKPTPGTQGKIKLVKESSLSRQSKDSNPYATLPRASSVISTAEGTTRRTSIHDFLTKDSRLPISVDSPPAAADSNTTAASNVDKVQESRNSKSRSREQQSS

Target: Breast cancer type 1 susceptibility protein (BRCA1), endogenous (human (endogenous in HEK293T and HeLa)) (UniProt P38398)
Assay: co-IP

binding: binds
Substance: endogenous full-length GIV (human cell lysates) (from UniProt Q3V6T2-3 1-1870)
